For one substance, binding results are on record in PMC4650726.

Chains of the proteins cited; added tags and fusions are not shown. Residues count along the entry.
UniProt P10747, residues 19-220: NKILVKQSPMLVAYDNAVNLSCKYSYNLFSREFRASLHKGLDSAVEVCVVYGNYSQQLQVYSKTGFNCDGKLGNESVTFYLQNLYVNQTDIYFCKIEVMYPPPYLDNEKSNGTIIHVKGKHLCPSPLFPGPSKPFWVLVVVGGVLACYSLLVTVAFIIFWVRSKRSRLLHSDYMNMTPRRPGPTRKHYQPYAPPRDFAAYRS

Results are given in words; binding and its absence hold for the method and conditions named. Binding seen in cells or lysates may run through a third protein. Some binding calls cover weakened binding; strength is not graded here.

This assay has as its target T1, Acid sphingomyelinase (human (endogenous in naive CD4+ T cells from blood)) (UniProt P17405).
T1 sequence: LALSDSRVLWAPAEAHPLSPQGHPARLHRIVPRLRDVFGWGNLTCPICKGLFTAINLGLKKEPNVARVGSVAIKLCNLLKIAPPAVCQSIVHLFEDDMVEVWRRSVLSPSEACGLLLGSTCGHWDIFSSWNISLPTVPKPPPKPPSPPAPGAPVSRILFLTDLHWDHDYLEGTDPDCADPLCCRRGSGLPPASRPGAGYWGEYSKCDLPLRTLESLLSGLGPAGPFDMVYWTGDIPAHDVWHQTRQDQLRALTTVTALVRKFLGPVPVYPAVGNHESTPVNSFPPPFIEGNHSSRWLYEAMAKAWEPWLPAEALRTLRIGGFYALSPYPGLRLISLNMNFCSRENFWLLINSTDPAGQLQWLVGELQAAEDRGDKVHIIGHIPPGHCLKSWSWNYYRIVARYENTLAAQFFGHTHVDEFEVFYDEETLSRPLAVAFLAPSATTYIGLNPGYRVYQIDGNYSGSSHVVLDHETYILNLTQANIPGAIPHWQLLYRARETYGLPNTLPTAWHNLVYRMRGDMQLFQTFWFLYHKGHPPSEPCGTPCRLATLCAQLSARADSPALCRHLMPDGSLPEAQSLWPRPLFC
In words: co-IP; naive CD4+ T-cell lysates in RIPA buffer (1 mM EDTA, 50 mM Tris-HCl pH 7.4, 150 mM NaCl, 1% NP-40, 0.25% sodium deoxycholate); mouse anti-human ASM antibody 3 h at 4 °C, Protein G-Sepharose 4B; blots for CD3 and CD28; mouse IgG or beads only as capture controls.

“CD28 (from UniProt P10747 19-220) (receptor)”: the binding result is on record as “binds”.
